For assay [1], the target named is HA-Smad2 (wild type) (human) (UniProt Q15796). In words: co-IP; Xenopus embryos co-injected with Flag-foxd4l1.1 and HA-smad2/HA-smad3 mRNA at the one-cell stage, harvested at stage 10.5 or 11; cleared lysates incubated overnight at 4 °C with anti-HA, protein A/G beads; Western blot with anti-Flag.
Assay [2] concerns the target HA-Smad3 (wild type) (human) (UniProt P84022). The assay is described as above.

Amino acid sequences for entries named in this document (tags omitted).
UniProt Q15796: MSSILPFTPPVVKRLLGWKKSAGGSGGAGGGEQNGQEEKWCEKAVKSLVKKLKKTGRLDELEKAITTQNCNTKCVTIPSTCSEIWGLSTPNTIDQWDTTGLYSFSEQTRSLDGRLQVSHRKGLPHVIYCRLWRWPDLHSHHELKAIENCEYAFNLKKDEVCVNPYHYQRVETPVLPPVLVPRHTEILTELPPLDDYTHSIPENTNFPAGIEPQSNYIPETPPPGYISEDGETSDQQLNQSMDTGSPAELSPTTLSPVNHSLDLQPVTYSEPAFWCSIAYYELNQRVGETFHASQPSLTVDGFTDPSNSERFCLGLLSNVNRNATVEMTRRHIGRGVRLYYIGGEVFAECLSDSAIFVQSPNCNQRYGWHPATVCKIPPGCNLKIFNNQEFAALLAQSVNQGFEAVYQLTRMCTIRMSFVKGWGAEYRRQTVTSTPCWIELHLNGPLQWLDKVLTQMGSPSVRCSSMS
UniProt P84022: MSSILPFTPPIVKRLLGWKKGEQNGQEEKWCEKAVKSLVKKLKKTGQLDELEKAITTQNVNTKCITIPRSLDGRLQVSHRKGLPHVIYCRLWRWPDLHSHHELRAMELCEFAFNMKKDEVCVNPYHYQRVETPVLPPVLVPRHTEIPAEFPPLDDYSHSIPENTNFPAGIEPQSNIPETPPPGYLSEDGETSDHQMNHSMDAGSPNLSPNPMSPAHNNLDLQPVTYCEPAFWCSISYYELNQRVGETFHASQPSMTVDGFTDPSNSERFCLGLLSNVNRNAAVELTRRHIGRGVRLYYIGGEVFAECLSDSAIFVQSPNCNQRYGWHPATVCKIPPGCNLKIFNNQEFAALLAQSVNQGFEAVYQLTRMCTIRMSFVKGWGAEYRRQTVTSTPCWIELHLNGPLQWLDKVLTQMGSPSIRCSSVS

No constants are given. Whether binding was seen depends on the method and setting. Binding seen in cells or lysates may run through a third protein. Some binding calls cover weakened binding; strength is not graded here. Sequences can lack the tags named with a protein.

B1: Flag-Foxd4l1.1 (protein, UniProt Q9PRJ8 1-352)
chain: MSFSQESGAHHHPQDYAGLSDEEDEIDILGEDDPCSLKSHFYLQPTHSVMGDSEMLSPSKLSCTESESDSSGESEGGTSKDSSTTPTGSKAKRTLVKPPYSYIALITMAILQSPHKKLTLSGICDFISSKFPYYKDKFPAWQNSIRHNLSLNDCFIKIPREPGNPGKGNYWTLDPASEDMFDNGSFLRRRKRFKRHQQEFFKDGLMMYNSLPYYRPYSAIQPQPVLQQTSLTCMAIPETLPMSTHLAPYPDIKRKVSYPAQGVHRGFKAQDADNHPNNSQSKCSFSIENIMRKPKEPEPNIQSFNSHWNYNHVFQRPSSCLLPAVLNLSTGPLLANTQGARQYNLIQFPGCY
With B1, the binding result in assay [1] and in assay [2] was “binds” in each case.

(Values after PMC8534798.)
